Data taken from ChEMBL document CHEMBL3988442, “University of Dundee, Small-Polar-MMV Screening Library” (2021).

Mtb growth Cornell: 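Whole-cell assay for inhibitors of Mycobacterium tuberculosis growth, labelled Cornell in the record; the read-out is not stated. The concentration is filed as 10 mM, unlikely as a test dose, so the dose is not known. The record gives no direction; compounds strong in two other growth screens of this library score well above the rest, so higher reads as stronger inhibition. About 53,000 compounds were tested under these conditions; 1.7% (about 900) showed 50% or more at least once.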
Mtb heat-shock: 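Assay on Mycobacterium tuberculosis, filed only as a heat shock assay from Cornell; the read-out is not stated. The concentration is filed as 10 mM, unlikely as a test dose, so the dose is not known. The record gives no direction; compounds that gave an IC50 in retests scored well above the rest, so higher reads as stronger inhibition. Size under these conditions: about 69,000 compounds, about 930 of them at 50% or above in at least one test.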

Results are given as percent effect.
The record does not define 0% and 100%; most values in the screen are far below 50% and negative numbers occur (in some assays of this library far below -100).
The compounds are a random part of those screened.
A dash means the value is not listed here; it may have been measured.

SMILES	Mtb growth Cornell	Mtb heat-shock
O=C(O)C(F)(F)F.O=C(O)C(F)(F)F.[H][C@]12CCN(C(=O)CC3CC3)CC[C@@]1([H])S(=O)(=O)CCN2Cc1cccnc1	-	-16.76%
Fc1ccccc1CC1CCN(Cc2nccs2)CC1	33.12%	7.97%
COCc1noc(CN2CCC3(CC2)[C@H](O)C[C@@H]3OC)n1	-	17.27%
COCCCC1(CO)CCCN(CCS(C)(=O)=O)C1 (centres undefined)	12%	6.047%
Cn1cc(CNC2CCCN(Cc3noc(C4CC4)n3)C2)cn1 (centres undefined)	-	9.34%
O=C(O)C(F)(F)F.[H][C@@]12CCN(CC3CCCO3)C[C@]1([H])CN(C(=O)Cc1cccs1)C2 (some centres undefined)	-2.375%	-43.52%
CCN1CCN(C(=O)COc2ccc(CN(C)S(C)(=O)=O)cc2)CC1	-5.254%	2.992%
CNC(=O)C1(Cc2cc(C(C)C)no2)CCN(Cc2ccccn2)C1 (centres undefined)	-10.53%	9.5%
Cc1c(C2N3C[C@]4(C)CN2C[C@](C)(C3)C4=O)[nH]c(=O)[nH]c1=O (some centres undefined)	8.748%	74.22%
Nc1ncccc1CN1CCCn2nc(CCC(=O)NC3CC3)cc2C1	36.12%	12.89%
CCc1ncc2c(n1)CN(CC(=O)Nc1cccnc1)CC2	-9.31%	-15.46%
CN(C)c1ccc(CC2CCN(c3cnccn3)C2)nn1 (centres undefined)	4.722%	18.64%
CCc1ncncc1C(=O)N1CCCC(n2nc(C)nc2C)C1 (centres undefined)	-	10.09%
NS(=O)(=O)c1cc(C(=O)N2CCCC(n3ccnc3)C2)cs1 (centres undefined)	-	-12.8%
CCS(=O)(=O)N1CCN(CC(F)(F)F)CC1	20.52%	1.336%
[H][C@@]12CS(=O)(=O)C[C@]1([H])N(C(=O)c1cc(F)cc(Cl)c1)CCN2CCO	-74.37%	-7.754%
COc1cc(N2CC3(CCN(c4ncccn4)C3)C2)ncn1	-16.75%	4.296%
Cc1ccc(S(=O)(=O)NC(=O)CCC(F)(F)F)cc1N(C)C	16.63%	11.88%
Nc1nc2c(c(NC(=O)Nc3ccccc3)n1)CCCC2	-53.1%	6.821%
O=C(c1ccc(O)nc1)N1CCN(C(=O)c2ccc(F)c(F)c2)CC1	7.639%	-10.99%
NC(=O)CN1CCC(c2cc(C(F)(F)F)n3ccnc3n2)CC1	-	-0.3626%
COCCC(Cc1cccc(Br)c1)C(N)=O (centres undefined)	-15.85%	-5.758%
CC(C)(C)c1nnc(CNc2c(F)cccc2-n2cccn2)o1	-11.39%	0.6342%
CCSc1ccc(C(C)NC(=O)CNS(C)(=O)=O)cc1 (centres undefined)	-	2.508%
CCN(Cc1ccco1)C(=O)NCC(c1cccs1)N(C)C (centres undefined)	-0.08878%	-17.62%
COc1ccc2[nH]c(=O)c(CN(C)C(C)c3ccccn3)cc2c1 (centres undefined)	-16.78%	47.94%
CCCN1C[C@H](NC(=O)c2ccccc2F)[C@@H](c2ccc(OC)cc2)C1	-10.81%	-8.648%
O=C(c1ccccn1)N1CCC(c2nc(O)cc(-c3ccncc3)n2)C1 (centres undefined)	4.72%	-10.47%
CCn1cc(N)c(-c2nnc3n2CCCC3)n1	-11.27%	3.721%
Cc1ccc2c(c1)C(=O)NCC1(CCN(C(=O)c3cnccn3)CC1)O2	-60.98%	1.631%
CN(C)S(=O)(=O)c1cccc(CNc2cc(CO)ccc2Cl)c1	6.584%	-10.61%
CC(NCC1CCN(CCO)CC1)c1ccc(C(F)(F)F)cc1 (centres undefined)	-20.09%	-17.59%
Cc1ccc(N2CCN(C(=O)COc3nccc(C)n3)CC2)nn1	-13.1%	-7.571%
CN(C)C(=O)CNC(=O)c1nc2c(s1)CCCN2Cc1ccccc1	-10%	3.3%
Cc1ccc(CN(C)C(=O)CN2CCOC(Cn3cncn3)C2)o1 (centres undefined)	-15.49%	31.01%
COc1cccc(Cn2cccc(C#N)c2=O)c1	-3.887%	-10.12%
CCC(=O)N1CCCN(C(=O)C2SCCc3sccc32)CC1 (centres undefined)	-33.74%	-17.6%
c1cnc(-c2cnc(N3CCSCC3)nc2C2CCCO2)cn1 (centres undefined)	-4.298%	10.03%
COc1c(C(=O)NCC(C)Sc2ccccc2)c(C)nn1C (centres undefined)	27.32%	-5.086%
O=C(O)c1ccc(CC2CCN(Cc3ccc(-c4cc[nH]n4)o3)C2)cc1 (centres undefined)	22.76%	-32.19%
COc1ccccc1N1CC(NC(=O)Cn2cc(C(C)C)nn2)CC1=O (centres undefined)	11.42%	9.132%
CNC(=O)c1cnc(/C=C/c2cc(OC)c(OC)c(OC)c2)s1	18.74%	7.947%
CN(C)c1cc(CNC(=O)CC2CCCCC2)ccn1	-2.254%	-20.43%
CCN(CC)c1nc(C)cc(C(=O)Nc2ccc(Br)cc2)n1	6.707%	28.41%
CCCNC(=O)C[S+]([O-])Cc1csc(C2CCCCC2)n1 (centres undefined)	-45.54%	-2.548%
Cc1csc(C2(NCc3nc(-c4ccco4)no3)CCCC2)n1	-	-7.504%
O=C(c1cnc(NCc2cccnc2)c(Cl)c1)N1CCCCC1	3.487%	-16.42%
Cl.Clc1ccccc1CN1CCc2nc(C3CCCCN3)ncc2C1 (centres undefined)	-	12.35%
COc1cc2nc(C)n(CC(=O)NCCC(C)C)c(=O)c2cc1OC	8.023%	-10.68%
Cc1cnc(C(=O)N2CCCCC2c2ccc(CN(C)C)cc2)cn1 (centres undefined)	-	-4.362%
CN(C(=O)CN1CCc2nn(C)c(=O)cc2C1)c1nccs1	-23.53%	1.868%
OC1(Cn2ccc3ncccc32)CCN(Cc2cccnc2)CC1	19.68%	3.001%
CC1CCN(C)c2ccccc2N1C(=O)c1ccc(=O)n(C)n1 (centres undefined)	17.76%	19.92%
Cc1nc(CN2CCC(N3CCN(C)C3=O)CC2)no1	-	24.84%
COc1ccc(-c2ccccc2CCN)c(OC)c1OC	-	27.05%
Cc1cccc(SC2CCN(C(=O)CCNS(C)(=O)=O)CC2)c1	44.93%	-5.323%
CN(Cc1ccccc1NCc1ncc[nH]1)C(=O)c1cccs1	-28.2%	-25.58%
Cc1ccc(N2CCCN(C(=O)C(C(C)C)n3cncn3)CC2)nn1 (centres undefined)	20.83%	3.869%
[H][C@@]12C[C@H](c3ccncn3)O[C@@]1([H])CCN(c1ccc(C)nn1)C2	-17.58%	27.31%
CCO[C@H]1C[C@@H](O)C12CCN(C1CCN(c3ccccc3C)CC1)CC2	-	5.098%
COCCOc1ccccc1C(=O)NCCN(C)C(C)C	-39.1%	-5.452%
COCCN1CCC2(COCc3c(C)nc(N4CCOCC4)nc32)C1.O=C(O)C(F)(F)F (centres undefined)	20.07%	-9.323%
O=S(=O)(c1ccccc1)N1CCN(CCn2ccnc2)CC1	-25.94%	3.023%
COc1cccc(CNCCNS(=O)(=O)Cc2ccccc2)c1	12.42%	-28.9%
Cc1nc(-c2ccccc2)sc1CSC(C)C(N)=O (centres undefined)	31.22%	1.14%
CC(=O)N1CCCC1c1nnn2cc(-c3ccncc3)ccc12.O=C(O)C(F)(F)F (centres undefined)	-10.84%	8.291%
CCc1cnc(N2CCC3(CCN(CC)C3=O)CC2)nc1	12.95%	0.7475%
CNC(=O)c1cc2c(nc1N(C)C)CCN(S(=O)(=O)CC(C)C)CC2.O=C(O)C(F)(F)F	14.6%	8.53%
CC(C)CCN1CCc2[nH]nc(C(=O)N3CCCC3C)c2C1.O=C(O)C(F)(F)F (centres undefined)	-	-14.97%